Experimental data published in the supplement of paper PMC7877785.
± gives the uncertainty stated by the source. Many entries were measured with a wide error.

Test: self-splicing fitness, log relative to wild type (ln ratio); higher = more splicing; Tetrahymena group I intron in knt gene, E. coli kanamycin selection, DiMSum; sequences stand for … in CUCUCU…GGAGGGAAAAGUUAUCAGGCAUGCACCUGGUAGCUAGUCUUUAAACCAAUAGAUUGCAUCGGUUUAAAAGGCAAGACCGUCAAAUUGCGGGAAAGGGGUCAACAGCCGUUCAGUACCAAGUCUCAGGGGAAACUUUGAGAUGGCCUUGCAAAGGGUAUGGUAAUAAGCUGACGGACAUGGUCCUAACCACGCAGCCAAGUCCUAAGUCAACAGAUCUUCUGUUGAUAUGGAUGCAGUUCACAGACUAAAUGUCGGUCGGGGAAGAUGUAUUCUUCUCAUAAGAUAUAGUCGGACCUCUCCUUAAUGGGAGCUAGCGGAUGAAGUGAUGCAACACUGGAGCCGCUGGGAACUAAUUUGUAUGCGAAAGUAUAUUGAUUAGUUUUGGAGUACUCGUGGUCG
Procedure, shortened: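 Colonies from six replicate transformations of E. coli BL21(DE3) were pooled and amplicon-sequenced on an Illumina HiSeq 2500. The library placed an intron with all eight P1ex-region nucleotides randomised inside the knt kanamycin-resistance gene on pET-22b(+), and cells grew overnight at 37°C or 30°C on LB agar with or without 25 μg/mL kanamycin (plus 100 μg/mL carbenicillin, 50 μM IPTG, 0.2% rhamnose). Fitness is the DiMSum error-weighted combination of wild-type-normalised replicate fold changes, kanamycin versus none.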

| Sequence | self-splicing fitness (ln) (30 °C) | self-splicing fitness (ln) (37 °C) |
| --- | --- | --- |
| CAUCAGCAAUAUUACGGCCC | -2.18 ± 0.54 | -1.37 ± 1.2 |
| GAAGAGCAAUAUUACGAUCC |  | -1.12 ± 0.93 |
| CAGGAGCAAUAUUACGUCAU | -4.19 ± 1 |  |
| UGUGAGCAAUAUUACGCUGC |  | -1.83 ± 0.66 |
| CCGGAGCAAUAUUACGCCGC | -0.828 ± 1 | -0.531 ± 0.5 |
| AGAGAGCAAUAUUACGACGG |  | -2.53 ± 0.63 |
| GCAGAGCAAUAUUACGGCAA | -3.59 ± 0.46 | -3.6 ± 0.42 |
| GUUAAGCAAUAUUACGAUAG | -4.33 ± 0.72 |  |
| UAUAAGCAAUAUUACGUCCC | -2.57 ± 0.78 | -0.835 ± 0.77 |
| UUCUAGCAAUAUUACGAACU | -2.95 ± 1.1 | -2.9 ± 1.1 |
| CCAGAGCAAUAUUACGGCUC | -2.69 ± 0.23 | -2.76 ± 0.26 |
| UCAUAGCAAUAUUACGUGGC | -4.46 ± 1 |  |
| CAACAGCAAUAUUACGAAGA | -2.55 ± 0.17 | -2.35 ± 0.17 |
| CUGUAGCAAUAUUACGGACA | -2.09 ± 1.4 | -0.924 ± 0.93 |
| GGAGAGCAAUAUUACGCUAC |  | -3.16 ± 1 |
| CGAAAGCAAUAUUACGCCUC | -2.06 ± 0.66 |  |
| UAGGAGCAAUAUUACGUAUC |  | -3.33 ± 0.52 |
| UUCAAGCAAUAUUACGUAUU | -3.82 ± 0.17 | -2.66 ± 0.16 |
| UACAAGCAAUAUUACGCCGC | -3.68 ± 0.62 |  |
| UCUCAGCAAUAUUACGACUG | -2.79 ± 0.17 | -3.11 ± 0.28 |

Laid out differently: results already given
GAAGAGCAAUAUUACGAUCC
  self-splicing fitness (ln) (37 °C) = -1.12 ± 0.93
GUUAAGCAAUAUUACGAUAG
  self-splicing fitness (ln) (30 °C) = -4.33 ± 0.72
UUCAAGCAAUAUUACGUAUU
  self-splicing fitness (ln) (30 °C) = -3.82 ± 0.17
  self-splicing fitness (ln) (37 °C) = -2.66 ± 0.16

Next results follow:

| Sequence | self-splicing fitness (ln) (30 °C) | self-splicing fitness (ln) (37 °C) |
| --- | --- | --- |
| UUGGAGCAAUAUUACGUGCU | -4.16 ± 0.51 |  |
| CAUUAGCAAUAUUACGAGAA | -2.62 ± 1.1 | -1.53 ± 0.52 |
| GCUUAGCAAUAUUACGAAGU | -3.26 ± 0.21 | -2.27 ± 0.21 |
| UCCGAGCAAUAUUACGAAAA | -4.4 ± 1 |  |
| GUGGAGCAAUAUUACGCCCC | -1.52 ± 1.2 | -1.17 ± 0.57 |
| GACGAGCAAUAUUACGAGAU |  | -2.81 ± 0.61 |
| CCCGAGCAAUAUUACGACCA | -2.24 ± 0.59 |  |
| CUCGAGCAAUAUUACGCAGC | -3.91 ± 0.51 | -2.06 ± 0.55 |
| GUCGAGCAAUAUUACGCGCG | -2.33 ± 0.78 | -1.38 ± 0.73 |
| UUGGAGCAAUAUUACGAGGC |  | -1.6 ± 0.53 |
| AUCGAGCAAUAUUACGCAGU | -2.07 ± 0.23 | -1.85 ± 0.33 |
| CUGGAGCAAUAUUACGCGCC |  | -1.27 ± 0.51 |
| UAUCAGCAAUAUUACGUUGA | -2.15 ± 0.18 | -1.95 ± 0.18 |
| CAAGAGCAAUAUUACGAAAC |  | -2.54 ± 0.76 |
| UUUGAGCAAUAUUACGCUCU | -1.78 ± 0.84 | -1.15 ± 0.63 |
| UAGGAGCAAUAUUACGCCAG | -2.77 ± 0.78 | -1.74 ± 0.58 |
| CCAGAGCAAUAUUACGCCGU |  | -3.03 ± 0.53 |
| UAUGAGCAAUAUUACGGCCA | -2.74 ± 0.64 |  |
| UUAGAGCAAUAUUACGAAUA | -2.32 ± 0.66 |  |
| GUUCAGCAAUAUUACGGGCA | -2.05 ± 0.6 | -1.11 ± 0.34 |

| Sequence | self-splicing fitness (ln) (30 °C) | self-splicing fitness (ln) (37 °C) |
| --- | --- | --- |
| CGAGAGCAAUAUUACGCUCC | -2.77 ± 0.76 | -2.67 ± 1.1 |
| AGAUAGCAAUAUUACGCUGC | -3.75 ± 1 |  |
| GGGAAGCAAUAUUACGCCAG |  | -1.84 ± 1.1 |
| GAGUAGCAAUAUUACGGGGG | -4.36 ± 1 |  |
| GCCGAGCAAUAUUACGAACA |  | -1.59 ± 0.61 |
| UAUUAGCAAUAUUACGGAUA | -1.86 ± 0.78 |  |
| CAUCAGCAAUAUUACGAUUC | -1.62 ± 0.071 | -0.269 ± 0.073 |
| GCGGAGCAAUAUUACGAGUC | -3.06 ± 0.61 |  |
| UCAGAGCAAUAUUACGAAGU |  | -2.9 ± 0.54 |
| GUCGAGCAAUAUUACGAACU | -1.01 ± 0.58 | -1.31 ± 0.5 |
| UUUUAGCAAUAUUACGAACC | -1.09 ± 0.61 | -0.656 ± 0.82 |
| CAGGAGCAAUAUUACGUACC |  | -0.687 ± 1 |
| GUUUAGCAAUAUUACGGCGG |  | -1.29 ± 0.71 |
| AAUAAGCAAUAUUACGGAGC |  | -3.06 ± 0.74 |
| UGCAAGCAAUAUUACGUGUA | -1.96 ± 0.073 | -1.35 ± 0.084 |
| GGUUAGCAAUAUUACGUCAC | -4.32 ± 1 |  |
| ACCGAGCAAUAUUACGUCGC |  | -3.76 ± 0.52 |
| ACGGAGCAAUAUUACGUAGG |  | -2.69 ± 0.53 |
| CUGAAGCAAUAUUACGGGCC |  | -3.1 ± 0.6 |
